The source of these data is patent publication US6645283B1, “Anthrapyridone compounds, water-based magenta ink composition, and method of ink-jet printing” (Nippon Kayaku Kabushiki Kaisha, priority 1998, dated 2003).

The data set can be described thus: Hue and vividness (L*, a*, b*, C*) of ink-jet recorded image, colorimeter GRETAG SPM50. The conditions noted are these: ink of Table 2. An excerpt:
Each water-based ink composition was produced by preparing the liquids which contain the anthrapyridone compounds (dyestuff components) of No.2, No.5 and No.15 respectively and have a composition of Table 2 as shown below, and then filtering through 0.45 μm membrane filter.
By using an ink-jet printer (Trade name: PICTY80L, made by NEC KK), ink-jet recordings were done on four types of recording sheets: a plain paper (Printer paper A4, TLB5A4S made by Canon KK), a special paper A (Color BJ Paper LC101 made by Canon KK), a special paper B (Coated paper for color image jetting, STX73A4 made by Sharp KK), and a glossy film (Special glossy film, MJA4SP6 made by Seiko-Epson KK).
A recorded paper was subject to color determination using the colorimeter (GRETAG SPM50, made by GRETAG Co.) to calculate L*,a*,b* values. Hue was evaluated on the base of the L*,a*,b* values, and vividness was evaluated from a value calculated by the formula: […]
The preferable recorded image has values in hue and vividness close to those of a color sample of standard magenta in Japan Color by Japan Printing Machinery Manufacturers Association (JNC).

Turning to `Cn1c(=O)cc2c3c(c(Nc4cc(Nc5nc(NCC(=O)O)nc(Nc6cc(C(=O)O)cc(C(=O)O)c6)n5)ccc4S(=O)(=O)O)ccc31)C(=O)c1ccccc1-2` [No.5], the “Hue a*” value is, setting by setting: (Glossy Film (GF)) 81.9; (Plain Paper (PP)) 59.2; (Special Paper A (SA)) 67.1; (Special Paper B (SB)) 74.9. Moreover, the “Hue b*” value is, setting by setting: (Glossy Film (GF)) −5.3; (Plain Paper (PP)) −2.4; (Special Paper A (SA)) −2.9; (Special Paper B (SB)) 1.0.
In the case of `Cn1c(=O)cc2c3c(c(Nc4cc(Nc5nc(NCCS(=O)(=O)O)nc(Nc6cc(C(=O)O)cc(C(=O)O)c6)n5)ccc4S(=O)(=O)O)ccc31)C(=O)c1ccccc1-2` [No.2], the “Hue a*” value came out at 81.2 (Glossy Film (GF)), 59.2 (Plain Paper (PP)), 67.4 (Special Paper A (SA)) and 75.5 (Special Paper B (SB)). Also, the “Hue b*” value runs as follows: (Glossy Film (GF)) −6.6; (Plain Paper (PP)) −1.6; (Special Paper A (SA)) −2.7; (Special Paper B (SB)) 1.6.
With `Cn1c(=O)cc2c3c(c(Nc4cc(Nc5nc(Cl)nc(Nc6cc7c(S(=O)(=O)O)cc(S(=O)(=O)O)cc7cc6S(=O)(=O)O)n5)ccc4S(=O)(=O)O)ccc31)C(=O)c1ccccc1-2` [No.15], the “Hue a*” value came to 79.6 (Glossy Film (GF)), 59.1 (Plain Paper (PP)), 68.5 (Special Paper A (SA)) and 75.0 (Special Paper B (SB)). In addition, the “Hue b*” value reads like this: (Glossy Film (GF)) 4.4; (Plain Paper (PP)) 4.5; (Special Paper A (SA)) 1.9; (Special Paper B (SB)) 9.8.
